No constants are given. Whether binding was seen depends on the method and setting. In cells and extracts the contact can be indirect. Some binding calls cover weakened binding; strength is not graded here.
Target: T1, LIN28A (mouse (endogenous in ES cells)) (UniProt Q8K3Y3)
T1 sequence: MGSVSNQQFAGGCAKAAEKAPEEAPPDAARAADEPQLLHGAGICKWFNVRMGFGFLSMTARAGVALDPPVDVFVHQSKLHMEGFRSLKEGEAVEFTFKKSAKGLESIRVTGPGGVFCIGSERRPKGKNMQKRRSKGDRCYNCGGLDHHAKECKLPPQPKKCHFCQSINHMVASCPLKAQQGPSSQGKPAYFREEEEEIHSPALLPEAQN
Assay: co-IP; endogenous LIN28A precipitated with anti-LIN28A (normal IgG as control) from RIPA lysate of ES cells, overnight at 4 °C, magnetic beads; Western blot

Amino acid sequences for entries named in this document (tags omitted).
UniProt Q61937: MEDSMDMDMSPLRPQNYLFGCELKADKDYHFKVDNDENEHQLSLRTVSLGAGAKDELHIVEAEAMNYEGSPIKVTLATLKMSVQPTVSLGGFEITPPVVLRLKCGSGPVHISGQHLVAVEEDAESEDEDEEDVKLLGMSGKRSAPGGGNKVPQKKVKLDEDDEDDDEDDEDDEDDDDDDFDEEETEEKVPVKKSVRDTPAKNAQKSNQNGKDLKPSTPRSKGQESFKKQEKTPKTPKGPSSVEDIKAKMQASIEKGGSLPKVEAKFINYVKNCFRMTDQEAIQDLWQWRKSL

Nucleophosmin (NPM1) (from UniProt Q61937 1-292)
binding: binds

B1: Fibrillarin (FBL) (protein, UniProt P35550 1-327)
chain: MKPGFSPRGGGFGGRGGFGDRGGRGGGRGGRGGFGGGRGGFGGGGRGRGGGGGGFRGRGGGGGRGGGFQSGGNRGRGGGRGGKRGNQSGKNVMVEPHRHEGVFICRGKEDALVTKNLVPGESVYGEKRVSISEGDDKIEYRAWNPFRSKLAAAILGGVDQIHIKPGAKVLYLGAASGTTVSHVSDIVGPDGLVYAVEFSHRSGRDLINLAKKRTNIIPVIEDARHPHKYRMLIAMVDVIFADVAQPDQTRIVALNAHTFLRNGGHFVISIKANCIDSTASAEAVFASEVKKMQQENMKPQEQLTLEPYERDHAVVVGVYRPPPKVKN
binding: binds

Source: paper PMC9226220
